According to the supplement of paper PMC10338343:
± gives the standard deviation. This is a selection; strong and weak results do not stand in their true shares. The uncertainty is large for many entries.

tested on: MIWI (PIWIL1) piRISC loaded with L1MC piRNA (30 nt); assay: pre-steady-state target cleavage rate (min^-1); MIWI and MILI are mouse PIWI proteins and EfPiwi is from a freshwater sponge; tags in brackets are library labels; higher = faster piRNA-guided slicing of the target; conditions: guide: L1MC piRNA 5'p-UAACUAAAUACUAUGCAAGCUGUAGGUCCU; auxiliary factor: none (no GTSF1)
Procedure, shortened: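 Using HEPES–potassium acetate buffer at 33 °C, 1 nM active affinity-purified piRISC with a single synthetic guide was mixed with 0.1 nM transcribed, DNA-blocked target RNA library for 0–8 or 0–960 min, with or without 500 nM GTSF1 partner protein. Uncleaved targets were sequenced and normalised to depth and to weakly complementary targets, and three trials were pooled with k3 capped at 0.0001 min^-1. A burst-and-steady-state fit gave the pre-steady-state cleavage rate.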

Which “pre-steady-state target cleavage rate” value does the source give for UCGUGGUACAGCUUGCAUAGUAUUUUCAAA here?
Its value is 0.00176 ± 0.0032.

UCCACCUACAGCUUGCAUAGUAUAAACAAA was tested. Which “pre-steady-state target cleavage rate” value did it give?
Its value is 0.00134 ± 0.0048.

UCCACCUACAGCUUGCAUAAGUAUUUAGUUA was tested. Which “pre-steady-state target cleavage rate” value did it give?
The value was 0.000821 ± 0.0095.

Which “pre-steady-state target cleavage rate” value does the source give for UCGACCUACAGCUUGCAUAGUAUAUACAAA here?
Its value is 0.00103 ± 0.0056.

AGGACCUACAGCUUGCAUAGUAUUAUCAAA was tested. Which “pre-steady-state target cleavage rate” value did it give?
Its value is 0.00235 ± 0.0041.

How did the “pre-steady-state target cleavage rate” value turn out when AGGACCUACAGCUUGCAAUCUAUUUAGUAA was run?
The value was 0.00122 ± 0.0065.

For UCGACCUACAGCUUCCAUAGUAUUUAGUAA, which “pre-steady-state target cleavage rate” value is on record?
Its value is 0.002 ± 0.0043.

How did the “pre-steady-state target cleavage rate” value turn out when UGGACCUACAGCUUCCAUAGUAUAUAGUUA was run?
Its value is 0.000989 ± 0.0055.

With AGGACCUACAGCUUGCUAAGUAUUUUCAAA as the sequence, how does the “pre-steady-state target cleavage rate” value read?
The value was 0.000258 ± 0.018.

For UCGACCUACAGCUUGCUAAGUAUUUUCAAA, which “pre-steady-state target cleavage rate” value is on record?
The value was 0.000372 ± 0.0092.

For UCCACCUACAGCUUGCAUAGUUAUUAGAAA, which “pre-steady-state target cleavage rate” value is on record?
Its value is 0.000939 ± 0.009.

For UGGACCUACAGCUUGCAAUGUAUUUACAAA, which “pre-steady-state target cleavage rate” value is on record?
The value was 0.000666 ± 0.0072.

With UGGACCUACAGCUUGCAUAGAUAUUAGUAA as the sequence, how does the “pre-steady-state target cleavage rate” value read?
The value was 0.000833 ± 0.0067.

With UCGACCUACAGCUUGGUUAGUAUUUAGAAA as the sequence, how does the “pre-steady-state target cleavage rate” value read?
The value was 0.00161 ± 0.0031.

How did the “pre-steady-state target cleavage rate” value turn out when “UCCUGGAUGAGCUUGCAUAGUAUAAUCAAA [g8:g21:cont:t1A]” was run?
The value was 0.00148 ± 0.0045.

For UCCUCCUACAGCUUGCUAGUAUUUAGUUA, which “pre-steady-state target cleavage rate” value is on record?
Its value is 0.00227 ± 0.0029.

UGGACCUACAGCUUGGAUAGUAUUUUCAAA was tested. Which “pre-steady-state target cleavage rate” value did it give?
Its value is 0.00151 ± 0.0033.

Which “pre-steady-state target cleavage rate” value does the source give for UCCACCUACAGCUUGCACUAGUAUUUAGUUA here?
Its value is 0.000946 ± 0.0077.

UCCACCUUGAGCUUGCAUAGUAUUUUCAAA was tested. Which “pre-steady-state target cleavage rate” value did it give?
Its value is 0.00131 ± 0.0033.

For UCCUGGAUCACCUAGCAUAGUAUUUAGUUA, which “pre-steady-state target cleavage rate” value is on record?
The value was 0.00264 ± 0.0027.

Which “pre-steady-state target cleavage rate” value does the source give for UCCUGGAUGUCGAACGAUAGUAUUAGUUA here?
Its value is 0.000239 ± 0.028.

How did the “pre-steady-state target cleavage rate” value turn out when UCCUGGAUGUCGAACCAUAGUAUUAUGUUA was run?
Its value is 0.000142 ± 0.045.

With UCGACCUACAGCUUGCAUAGUAAAUAGAAA as the sequence, how does the “pre-steady-state target cleavage rate” value read?
The value was 0.00158 ± 0.0054.

UGGACCUACAGCUUGCAUAGUAAAAAGAAA was tested. Which “pre-steady-state target cleavage rate” value did it give?
Its value is 0.000665 ± 0.0073.

Which “pre-steady-state target cleavage rate” value does the source give for UCCACCUACACGAUGCAUAGUAUUUAGUAA here?
The value was 0.00092 ± 0.005.

UCCACCUACAGCUUCCAUAGUAUUUAGAUA was tested. Which “pre-steady-state target cleavage rate” value did it give?
The value was 0.000768 ± 0.0075.

Which “pre-steady-state target cleavage rate” value does the source give for UCCACCUACAGCUUGCUAUGUAUUUAGAAA here?
Its value is 0.000228 ± 0.017.

With UCCACCUACAGCUACCAUAGUAUUUACAAA as the sequence, how does the “pre-steady-state target cleavage rate” value read?
The value was 0.000553 ± 0.014.

With AGGACCUACAGCUUGCAUAGUAUUAUCUAA as the sequence, how does the “pre-steady-state target cleavage rate” value read?
Its value is 0.00279 ± 0.0035.

Which “pre-steady-state target cleavage rate” value does the source give for UGGACCUACACGAUGCAUAGUAUUUUCAAA here?
Its value is 0.000729 ± 0.0064.

With UCCACCUACAGCUUGCAUUCAAUUUUCAAA as the sequence, how does the “pre-steady-state target cleavage rate” value read?
The value was 0.000214 ± 0.013.

For “UCCACCUACAGCUUGCAUAGUAUUUUCAAA [g6:g27:cont:t1A]”, which “pre-steady-state target cleavage rate” value is on record?
The value was 0.00216 ± 0.0044.

UCCACCUACAGCUUGCUUAGUAUUUACAAA was tested. Which “pre-steady-state target cleavage rate” value did it give?
The value was 0.00142 ± 0.0045.

Which “pre-steady-state target cleavage rate” value does the source give for UCCUGGAUGUCGAACGUUAGCUAUUUAGUUA here?
Its value is 0.000331 ± 0.015.

Which “pre-steady-state target cleavage rate” value does the source give for UCCUGGAUGUCGAACGUAACAUUUUAGUUA here?
Its value is 0.000224 ± 0.017.

Which “pre-steady-state target cleavage rate” value does the source give for UCGACCUACAGCUUGCAUAGUAUAAACAAA here?
Its value is 0.00113 ± 0.0049.

How did the “pre-steady-state target cleavage rate” value turn out when UCCACCUACAGGUUCCAUAGUAUUUAGUUA was run?
Its value is 0.00109 ± 0.0049.

For UCCACCUACAGCUUGCCAUAGUAUUUAGUUA, which “pre-steady-state target cleavage rate” value is on record?
The value was 0.00156 ± 0.0048.

For ACCACCUACAGCUUGCAUAGUAUUUUCAAA, which “pre-steady-state target cleavage rate” value is on record?
Its value is 0.00359 ± 0.0036.
